# Primary screen of a compound library

Sequences of proteins named here, by UniProt entry; tags and fusion partners are left off.
UniProt E9BF75, entry or part of it: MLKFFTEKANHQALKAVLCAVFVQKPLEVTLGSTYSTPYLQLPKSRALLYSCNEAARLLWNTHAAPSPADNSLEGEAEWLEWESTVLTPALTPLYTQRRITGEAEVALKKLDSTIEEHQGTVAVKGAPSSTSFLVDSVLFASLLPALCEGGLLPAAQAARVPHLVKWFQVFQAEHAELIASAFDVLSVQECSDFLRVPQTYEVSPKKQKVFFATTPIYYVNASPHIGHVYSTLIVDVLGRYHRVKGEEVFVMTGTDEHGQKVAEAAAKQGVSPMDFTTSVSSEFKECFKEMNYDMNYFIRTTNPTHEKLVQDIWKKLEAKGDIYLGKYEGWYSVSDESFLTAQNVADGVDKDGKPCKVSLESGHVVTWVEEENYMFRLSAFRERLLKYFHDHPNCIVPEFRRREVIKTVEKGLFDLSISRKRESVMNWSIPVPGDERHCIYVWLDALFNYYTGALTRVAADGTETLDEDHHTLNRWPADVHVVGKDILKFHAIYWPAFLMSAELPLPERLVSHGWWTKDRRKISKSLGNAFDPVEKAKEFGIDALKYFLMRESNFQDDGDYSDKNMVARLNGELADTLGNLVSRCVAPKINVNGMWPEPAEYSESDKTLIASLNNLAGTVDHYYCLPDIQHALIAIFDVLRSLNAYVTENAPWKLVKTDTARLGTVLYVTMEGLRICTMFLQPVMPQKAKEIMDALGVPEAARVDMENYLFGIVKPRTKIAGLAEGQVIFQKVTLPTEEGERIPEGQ

All values are in %. The record does not define 0% and 100%; most values in the screen are far below 50% and negative numbers occur (in some assays of this library far below -100). The compounds are a random part of those screened.

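Methionyl-tRNA synthetase (putative), Leishmania donovani (UniProt E9BF75). Primary screen of methionyl-tRNA synthetase; the read-out is not stated. The test concentration is not given. Values are per cent inhibition. Of about 68,000 compounds tested this way, about 24 (0.035%) reached 50% or more in at least one test.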

{"smiles": "CCOc1ncc(NC(=O)c2ccccn2)c(OCC)n1", "Inhibition": 5.755}
{"smiles": "COCC(NC(=O)c1cc(NC(C)=O)ccc1Cl)c1ccnn1C", "stereo": "configuration not stated", "Inhibition": 6.991}
{"smiles": "Cc1n[nH]c(C2CN(C(=O)c3ccoc3C)CCO2)n1", "stereo": "configuration not stated", "Inhibition": 14.7}
{"smiles": "Cc1nc(CN2C(=O)CC[C@@H]3[C@H]2CCN3C(=O)NC2CC2)cs1", "Inhibition": 7.744}
{"smiles": "CC1CN(C(=O)c2ccn(-c3cccc(Cl)c3)n2)CCO1", "stereo": "configuration not stated", "Inhibition": 15.79}
{"smiles": "CCOCC(O)CN1CCN(C(=O)c2ccc3c(c2)COC3)CC1", "stereo": "configuration not stated", "Inhibition": 14.93}
{"smiles": "O=C(c1cnccn1)N1C[C@@H](OCc2cccnc2)[C@H]2OCCC[C@H]21", "Inhibition": -0.6536}
{"smiles": "CN(C)C(=O)COCc1cncc2c1CCN(Cc1ccccc1)C2", "Inhibition": 10.22}
{"smiles": "CCO[C@H]1C[C@@H](O)C12CCN(C(=O)CCN1CCCC1=O)CC2", "Inhibition": 4.604}
{"smiles": "Cn1cc(CN2Cc3c(cnn3C)C(COCC3CC3)C2)cn1", "stereo": "configuration not stated", "Inhibition": 9.375}
{"smiles": "CN1CCC(NC(=O)Nc2cnn(-c3ccccc3Cl)c2)C1=O", "stereo": "configuration not stated", "Inhibition": -16.57}
{"smiles": "O=C(O)[C@@]12CN(c3cnccn3)C[C@@H]1CN(C1CCOCC1)C2", "Inhibition": 17.01}
{"smiles": "CN(C)c1ccc(-c2cc(=O)n3c(n2)CCCCC3)cc1", "Inhibition": 5.497}
{"smiles": "Cc1nc(C2CCCN(C(=O)c3cnc(C)s3)C2)no1", "stereo": "configuration not stated", "Inhibition": 5.978}
{"smiles": "c1cncc(OCC2CN(Cc3ccsc3)Cc3nccn3C2)c1", "stereo": "configuration not stated", "Inhibition": 5.333}
{"smiles": "Cc1cc(N2CCN(Cc3nccn3C)CC2)cc(C)n1", "Inhibition": 4.425}
{"smiles": "COCCN1CCC2(CCN(c3ncccn3)CC2)C1=O", "Inhibition": 2.244}
{"smiles": "N#Cc1ccccc1CC1CCCS(=O)(=O)C1", "stereo": "configuration not stated", "Inhibition": 2.466}
{"smiles": "CC(C)c1nccc(CN2CCCC(O)(CN3CCCC3)C2)n1", "stereo": "configuration not stated", "Inhibition": 8.184}
{"smiles": "CCNC(=O)NC(=O)CSC(C)c1c(F)cccc1F", "stereo": "configuration not stated", "Inhibition": 6.829}
{"smiles": "Cn1ccnc1-c1cn(CCCc2csc(N)n2)nn1", "Inhibition": 16.1}
{"smiles": "COCCN1C[C@@H](C)[C@@]2(COCCN(C(=O)c3ccno3)C2)C1", "Inhibition": 20.52}
{"smiles": "c1ccc(CNC[C@H]2Cn3ccnc3CO2)cc1", "Inhibition": 3.051}
{"smiles": "CCN1CC(O)CN(C(=O)c2cccc(C(F)(F)F)c2)CC1=O", "stereo": "configuration not stated", "Inhibition": 18.36}
{"smiles": "CC(C)N1CCC(NC(=O)NCCC(=O)NCc2ccccc2)C1", "stereo": "configuration not stated", "Inhibition": 3.958}
{"smiles": "COc1ccc(S(=O)(=O)N2Cc3c(CN(C)C)nn(C)c3C2)cc1", "Inhibition": 10.64}
{"smiles": "COc1cc2[nH]c(=O)c(CN3CCC[C@@H]3C(N)=O)cc2c(OC)c1OC", "Inhibition": 3.548}
{"smiles": "Cc1cc(N(C)C)nc(NC2CCc3nc(C)nn3C2)n1", "stereo": "configuration not stated", "Inhibition": 10.86}
{"smiles": "COCCNC(=O)c1cc(-c2ccc3c(c2)CCO3)n[nH]1", "Inhibition": 8.182}
{"smiles": "COc1cccc(CN2C[C@@H]3COC[C@]3(COCc3ccccn3)C2)c1", "Inhibition": 6.667}
{"smiles": "CCN(CC)C(=O)N1CCN(CCc2ccncc2)CC1", "Inhibition": 7.554}
{"smiles": "CN(C)S(=O)(=O)CCCOc1cccc(-n2ccnc2)c1", "Inhibition": 8.696}
{"smiles": "Cc1noc(CN(C)c2nc(-c3ccco3)nc3c2CCN(C)CC3)n1", "Inhibition": 13.62}
{"smiles": "COc1ccccc1-c1cc(NC(=O)CCC2CCCO2)[nH]n1", "stereo": "configuration not stated", "Inhibition": 10.84}
{"smiles": "N#Cc1ccc(C(=O)NS(=O)(=O)c2ccc(F)c(F)c2)cc1", "Inhibition": 9.441}
{"smiles": "N#CC1(C(=O)N2CCC(Nc3cccnn3)CC2)CCCCC1", "Inhibition": 8.635}
{"smiles": "O=C(C1CCC1)N1C[C@@H](c2ccsc2)[C@@H]2CN(C3CCCC3)CC[C@@H]21", "Inhibition": 15.19}
{"smiles": "CCC1(CC)CC(=O)N(CC(O)c2cc(F)ccc2F)C1=O", "stereo": "configuration not stated", "Inhibition": 9.756}
{"smiles": "Cc1nc(CNC2(C(=O)OC(C)(C)C)CCCC2)oc1C", "Inhibition": 10.14}
{"smiles": "Cc1cnn(CCNCc2c(C)nn(C)c2Cl)c1", "Inhibition": 15.38}
{"smiles": "COCCCNS(=O)(=O)c1cc(C)sc1C", "Inhibition": 8.065}
{"smiles": "CCCn1cnc2c1CN(S(=O)(=O)c1ccc(F)cc1)[C@H](C(=O)OC)C2", "Inhibition": 1.504}
{"smiles": "COc1ccc(C(=O)NC[C@H]2COCc3nc4cc(C)ccc4n32)cc1", "Inhibition": 12.54}
{"smiles": "O=C(CSc1ccc2c(c1)OCCO2)NS(=O)(=O)c1cccnc1", "Inhibition": 11.61}
{"smiles": "CCOC(=O)C1CCCN(Cc2c[nH]nc2-c2cc3ccccc3o2)C1", "stereo": "configuration not stated", "Inhibition": -0.9804}
{"smiles": "Cc1occc1C(=O)NCC(=O)N1CCCC(c2ccccc2)CC1", "stereo": "configuration not stated", "Inhibition": 1.047}
{"smiles": "CC[C@H](C)Cn1nc(C2CCNCC2)n(Cc2ccccc2)c1=O", "Inhibition": 17.03}
{"smiles": "CC(C)CN(CC(O)c1ccccc1)C(=O)Nc1nccs1", "stereo": "configuration not stated", "Inhibition": 19}
{"smiles": "Cc1cncnc1C1CCN(CCO)CC1", "Inhibition": 13.12}
{"smiles": "CCOCCCC(=O)N1CCCC1c1nc(-c2ccccc2F)c[nH]1", "stereo": "configuration not stated", "Inhibition": 1.299}
{"smiles": "c1cn(CC2CC2)c(C2CCN(CCC3CCOC3)CC2)n1", "stereo": "configuration not stated", "Inhibition": 6.25}
{"smiles": "CCCN1CCC(NC(=O)c2ccnc(SCC)c2)CC1", "Inhibition": 17.53}
{"smiles": "Cc1nonc1NC(=O)c1ccc(F)c(COCC2CC2)c1", "Inhibition": -0.7246}
{"smiles": "CCC(Cn1ccnc1)n1cnc2scc(C)c2c1=O", "stereo": "configuration not stated", "Inhibition": 3.226}

Some entries from above, unchanged:

- COCCN1CCC2(CCN(c3ncccn3)CC2)C1=O : 2.244%
- CC[C@H](C)Cn1nc(C2CCNCC2)n(Cc2ccccc2)c1=O : 17.03%
- CCCN1CCC(NC(=O)c2ccnc(SCC)c2)CC1 : 17.53%
- COCCNC(=O)c1cc(-c2ccc3c(c2)CCO3)n[nH]1 : 8.182%
- COCCCNS(=O)(=O)c1cc(C)sc1C : 8.065%

The values are deposited in ChEMBL (CHEMBL3988442, “University of Dundee, Small-Polar-MMV Screening Library” (2021)).